This passage reports binding results from paper PMC12620021 (Nucleic Acids Research, 2025).

The chains behind the UniProt entries cited, without tags or fusion partners. Residues count along the entry.
UniProt P9WF09, residues 2-85: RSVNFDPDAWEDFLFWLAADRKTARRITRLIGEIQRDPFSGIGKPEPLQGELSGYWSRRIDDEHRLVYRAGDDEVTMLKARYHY

Results are given in words; binding and its absence hold for the method and conditions named. Binding seen in cells or lysates may run through a third protein. Some entries that bind do so weakly or less than the wild type. Where a sequence is shown, tags or fusion partners need not be part of it.

The target of test [1] is T1, RelB3(YefM) antitoxin with a C-terminal 6xHis-tag (from pETDuet-YefMHis-YoeB) (Mycobacterium tuberculosis H37Rv) (UniProt P9WF25).
T1 sequence: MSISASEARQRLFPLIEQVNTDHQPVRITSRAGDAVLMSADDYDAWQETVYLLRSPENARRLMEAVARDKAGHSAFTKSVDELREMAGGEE
The test is described as follows: pull-down.

The target of test [2] is T2, RelB1His antitoxin (from pETDuet–RelB1His) (Mycobacterium tuberculosis H37Rv) (UniProt O50462).
T2 sequence: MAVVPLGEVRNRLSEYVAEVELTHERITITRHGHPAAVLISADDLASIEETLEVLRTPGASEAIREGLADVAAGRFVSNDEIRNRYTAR
Briefly: pull-down.

In the case of “RelE3(YoeB) toxin (from pETDuet-YefMHis-YoeB) (from UniProt P9WF09 2-85)”, the binding entry in test [1] is listed as “binds”.

B1: RelE1 toxin (from pETDuet–RelB1His–RelE1) (protein, UniProt O50461 1-97)
chain: MSDDHPYHVAITATAARDLQRLPEKIAAACVEFVFGPLLNNPHRLGKPLRNDLEGLHSARRGDYRVVYAIDDGHHRVEIIHIARRSASYRMNPCRPR
Regarding B1, in test [2], the binding entry is given as “binds”.
